Most values lie at the floor of the assay. Slopes are relative: functional sequences can read slightly below zero.
test system: Saccharomyces cerevisiae PS128 hsf1 delta, HSF1(1-493) fusion; test: growth estimate (transactivation domain function in HSF1 fusion, heat-shock survival) (a.u. (slope of normalised read count over time)); higher = stronger growth at 37°C, i.e. more transactivation activity; settings: library: random library
Protocol: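 Random 60-nt DNA library encoding peptides of up to 20 aa, fused to the C-terminus of yeast HSF1 residues 1-493 (C-terminal TAD deleted) and expressed from the native HSF1 promoter on a CEN plasmid in hsf1-deleted S. cerevisiae PS128. Cells were selected at 37°C on -trp 5-FOA plates for 0, 2, 4, 6 and 8 days and amplicons were sequenced. Growth estimate is the slope of a robust linear fit of total-sum-normalised read counts (normalised to the first time point) over time, using at least 2 replicates. Sequences are classed functional (TAD activity) above a threshold of -0.13, set from stop-codon control sequences.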

Row | Substance | growth estimate
1 | DLWFARTGLLRALRSGERSK | < -0.25
2 | LVRFFSRLK | -0.231
3 | DTTPRRSRLPG | < -0.25
4 | SSVWDLRAVQLLSIDAQVKR | < -0.25
5 | VDLFNMRLRFFIGSFFQYRA | < -0.25
6 | LVWCG | < -0.25
7 | NCSTYTRSLGV | < -0.25
8 | VSSLVICR | < -0.25
9 | SRRRSWSRKSSKLRKPNCGM | -0.246
10 | RESVVARSGNTWWIG | < -0.25
11 | QGRTCRTRQERVYHLAPGGG | < -0.25
12 | LAVILCAL | < -0.25
13 | CMTISIFTRAIVCVTTLAAW | < -0.25
14 | EGSSAKLRRKF | < -0.25
15 | SDPLPKAGPTVKIEVRCRLH | < -0.25
16 | RAPSTVHLGVMLDGLKQRLT | < -0.25
17 | GSVPEFPRGFLLRSDLLFLR | < -0.25
18 | IHWGLRSAISSSD | < -0.25
19 | TRCCLEFLYTW | < -0.25
20 | ATSSSGVRPFPIRKPCLLAP | < -0.25
21 | EMGFRTAGAMRTQSTQRNPD | < -0.25
22 | LWITEDGSALGSHRFTSQRR | < -0.25
23 | TLAPFTKII | < -0.25
24 | LRVMEY | < -0.25
25 | WGSRSILSLRPYKIRTARTH | < -0.25
26 | LEYCRPLGMMGSRLWALRGQ | < -0.25

Row | Substance | growth estimate
27 | REPGILLLRDLAGCTECVCL | < -0.25
28 | ANSVKYQSPVVVGAEV | < -0.25
29 | GVWGRI | < -0.25
30 | AEVDRSR | < -0.25
31 | RFDVEEARVS | < -0.25
32 | SSSSRGTLRA | < -0.25
33 | KGTSSGKQKYASELRTKSWP | < -0.25
34 | ISIRVRH | < -0.25
35 | SSTSKYSVIFGKSALSTDGQ | < -0.25
36 | LLETARTKLGCSMLDRKSHP | < -0.25
37 | SDIIAVGMTPTGGVKAFADT | < -0.25
38 | VVNFP | < -0.25
39 | RLLNGSKLLGCHRVGLENPP | < -0.25
40 | FEVGEVGAAPHGI | < -0.25
41 | LTRSSFADKSVMLFISVFQP | < -0.25
42 | LRYRA | < -0.25
43 | SLHVQSLT | < -0.25
44 | VCIES | < -0.25
45 | KISTRCRVDFCFNARCRSCL | < -0.25
46 | SPKMPASTRGHTT | < -0.25
47 | PPGF | < -0.25
48 | TPVEPVNMTERVVRNAERGP | < -0.25
49 | SRIYAGRIM | < -0.25
50 | RWQFKGLR | < -0.25
51 | AVRNTSLSGLSSNSTGPGRP | < -0.25
52 | TEGFVDGRLPAWTFYRVLDA | < -0.25

Row | Substance | growth estimate
53 | IKRVIGAG | < -0.25
54 | VVSLSRAQEWLSPPMVMRDP | < -0.25
55 | PTLSSQ | < -0.25
56 | IVKAELSMKVTVWAILKVAR | < -0.25
57 | STSSSSVILDKIARCISR | < -0.25
58 | CVPVQTGPHRTPVIRC | < -0.25
59 | TGVCV | < -0.25
60 | AKRSSLEIWMVFDY | < -0.25
61 | TWGSHVSFPESDAGHLIHDV | < -0.25
62 | QNLPVIVGANCGVHRKMYAH | -0.245
63 | RMVS | < -0.25
64 | VKSWGFSVGITSYGEAPCVR | < -0.25
65 | LGIYLSA | < -0.25
66 | DRAARRLPTRAYCGNP | < -0.25
67 | NLTR | < -0.25
68 | LERVS | < -0.25
69 | CLPGSLHTPWIILRGRVTFR | < -0.25
70 | QRHASSRSQTWNIAVPNFAP | -0.246
71 | AQVGALPGSRSVPREANPDA | < -0.25
72 | SLVVS | < -0.25
73 | KNA | < -0.25
74 | YTQLRQSTYTRRHILGLILP | < -0.25
75 | VETVDSRSEALRNTKRASHV | < -0.25
76 | RGLSCRLGPQVWQVTKQ | < -0.25
77 | GTRRPTGHCDLHGNSSLVLT | -0.245
78 | SDTLNRGYI | < -0.25

Row | Substance | growth estimate
79 | RSN | < -0.25
80 | SVLKRCTYKHIPRLVDLAIC | < -0.25
81 | CFQLRGCRVANARLTSRLSV | < -0.25
82 | THF | < -0.25
83 | TITCRESGFLSGATSTVIRS | < -0.25
84 | ADQVG | < -0.25
85 | GVLDDKSFTQIGRAAGELRD | < -0.25
86 | HCRNY | < -0.25
87 | QQYSRYSNRWAR | < -0.25
88 | LDTAGGHAVVHPVCVGSDKS | < -0.25
89 | GQTIFEGK | < -0.25
90 | AWLLQGWERRSGRAVLSESP | -0.228
91 | SVYQRCSRSYLSISLWTGPR | < -0.25
92 | FAASAKTAPYCNGFAHCVSV | < -0.25
93 | FKMTFVTYSACASRNFKERV | < -0.25
94 | VVRRCKALKRR | < -0.25
95 | RVGDYLFKSGSFSQAAHVDA | < -0.25
96 | PEPMGALCTCLGAPSH | < -0.25
97 | RSPLYEDASKVSHS | < -0.25
98 | PGSCYNCVATYPGG | < -0.25
99 | SILLGVAISRAK | < -0.25
100 | RSHYSIGVETNTVATSTDDS | < -0.25
101 | LTRFHRHLLDST | < -0.25
102 | ALSSYKRSCIAGNLTPTSYY | < -0.25
103 | KVGMISVLRR | < -0.25
104 | AMGWAFELTLLPGGTCFLPL | -0.248

Row | Substance | growth estimate
105 | QCKGDAYRGVRATKMNVHSY | < -0.25
106 | SHG | < -0.25
107 | DCRCIFTIQWGGDGGLASRS | < -0.25
108 | GSSLCSVLVSGIESHASPFD | < -0.25
109 | RECVRNDTDRTWGLVRIPVT | < -0.25
110 | EGCPVDRIRV | < -0.25
111 | LGDSDFCQGCHYWSGGSSRQ | < -0.25
112 | GSTKVVISTKKSQPNSSTL | < -0.25
113 | PPKLILKGLRSIADVGGRVA | < -0.25
114 | WYIVVCISVLLHPNCFARHR | < -0.25
115 | GLMCKTWDTLSRVTVLLDGT | < -0.25
116 | FLTTGFNRSVGP | < -0.25
117 | PKKTVVRSYR | < -0.25
118 | RLKHKNRLARRKSLPDRCHC | < -0.25
119 | NSARVFCYTRAASCLTWPCD | < -0.25
120 | LGSLELASLAL | < -0.25
121 | IQLEDLAKKKRKDRHVSTPL | < -0.25
122 | PTPSYK | < -0.25
123 | VHRKNNGDHRRPGLNSRSMG | < -0.25
124 | AKMITDI | < -0.25
125 | NPWSLCQKID | < -0.25
126 | EELNGNRPQVSRTVSGLQRQ | < -0.25
127 | CKNR | < -0.25
128 | RDMGPGMRRPHMVAALFPRQ | < -0.25
129 | LWGGFEFVRPTDCARS | < -0.25
130 | IYYTQSDPQLPSTQGPR | < -0.25

Another view of some results above.
Row	Substance	growth estimate
96	PEPMGALCTCLGAPSH	< -0.25
97	RSPLYEDASKVSHS	< -0.25
98	PGSCYNCVATYPGG	< -0.25
99	SILLGVAISRAK	< -0.25
100	RSHYSIGVETNTVATSTDDS	< -0.25
101	LTRFHRHLLDST	< -0.25
102	ALSSYKRSCIAGNLTPTSYY	< -0.25
103	KVGMISVLRR	< -0.25
104	AMGWAFELTLLPGGTCFLPL	-0.248
105	QCKGDAYRGVRATKMNVHSY	< -0.25
106	SHG	< -0.25
107	DCRCIFTIQWGGDGGLASRS	< -0.25
108	GSSLCSVLVSGIESHASPFD	< -0.25
109	RECVRNDTDRTWGLVRIPVT	< -0.25
110	EGCPVDRIRV	< -0.25
111	LGDSDFCQGCHYWSGGSSRQ	< -0.25
112	GSTKVVISTKKSQPNSSTL	< -0.25
113	PPKLILKGLRSIADVGGRVA	< -0.25
114	WYIVVCISVLLHPNCFARHR	< -0.25
115	GLMCKTWDTLSRVTVLLDGT	< -0.25
116	FLTTGFNRSVGP	< -0.25
117	PKKTVVRSYR	< -0.25
118	RLKHKNRLARRKSLPDRCHC	< -0.25
119	NSARVFCYTRAASCLTWPCD	< -0.25
120	LGSLELASLAL	< -0.25
121	IQLEDLAKKKRKDRHVSTPL	< -0.25
122	PTPSYK	< -0.25
123	VHRKNNGDHRRPGLNSRSMG	< -0.25
124	AKMITDI	< -0.25
125	NPWSLCQKID	< -0.25
126	EELNGNRPQVSRTVSGLQRQ	< -0.25
127	CKNR	< -0.25
128	RDMGPGMRRPHMVAALFPRQ	< -0.25
129	LWGGFEFVRPTDCARS	< -0.25

The results go on.

Row | Substance | growth estimate
131 | TSRAMRCLGSIKRLLPKALP | < -0.25
132 | CRRWVVCRLARLGMPLQPGI | < -0.25
133 | VVRVD | < -0.25
134 | DASRRFMSLIPCHDPCPEVT | < -0.25
135 | CGPSVGLVVRVFEPAQSGGH | < -0.25
136 | DLQMAGGMGANVEVCREPFT | < -0.25
137 | AFAVLSTRFQAMTKPETVCA | < -0.25
138 | SCSKRGVGLREGVSRQSQQA | < -0.25
139 | PLPR | < -0.25
140 | AYEGNEASPGCYVIVLPDKR | < -0.25
141 | VVPVTPGGRRSFR | < -0.25
142 | HADSANSFGRLLSPTLVTRT | < -0.25
143 | SCSARGLRPGSLKLFYVDSP | < -0.25
144 | ALSDSAESECSIASIQHVPG | < -0.25
145 | INRPVGNV | < -0.25
146 | YLASSRTLTRREF | -0.246
147 | TRAVICPPYFHGGSRRTQVF | < -0.25
148 | SLLCC | < -0.25
149 | VLTPPWTAGANCEYYDAMLV | < -0.25
150 | ITDQVTSLCMLLCGSRPAPE | -0.246
151 | YTSTAV | < -0.25

Some of the entries above in another layout:

| Row | Substance | growth estimate |
| --- | --- | --- |
| 50 | RWQFKGLR | < -0.25 |
| 60 | AKRSSLEIWMVFDY | < -0.25 |

Reference: the supplement of paper PMC5949888
